Experimental data taken from patent US20040219584.
Numbering of substitutions follows the chain as printed. Protein sequences can lack the tags named with them. For some assays here: Construct, isoform or probe ends are uncertain for at least one entry. For some assays here: No signal at the amounts used counts as a negative.

Tests used:
[1] = test system: T1, BpmI M1 methylase (Bacillus pumilus); assay: activity in cells; settings: protein in cells, only the site is given
T1 sequence (limits assumed): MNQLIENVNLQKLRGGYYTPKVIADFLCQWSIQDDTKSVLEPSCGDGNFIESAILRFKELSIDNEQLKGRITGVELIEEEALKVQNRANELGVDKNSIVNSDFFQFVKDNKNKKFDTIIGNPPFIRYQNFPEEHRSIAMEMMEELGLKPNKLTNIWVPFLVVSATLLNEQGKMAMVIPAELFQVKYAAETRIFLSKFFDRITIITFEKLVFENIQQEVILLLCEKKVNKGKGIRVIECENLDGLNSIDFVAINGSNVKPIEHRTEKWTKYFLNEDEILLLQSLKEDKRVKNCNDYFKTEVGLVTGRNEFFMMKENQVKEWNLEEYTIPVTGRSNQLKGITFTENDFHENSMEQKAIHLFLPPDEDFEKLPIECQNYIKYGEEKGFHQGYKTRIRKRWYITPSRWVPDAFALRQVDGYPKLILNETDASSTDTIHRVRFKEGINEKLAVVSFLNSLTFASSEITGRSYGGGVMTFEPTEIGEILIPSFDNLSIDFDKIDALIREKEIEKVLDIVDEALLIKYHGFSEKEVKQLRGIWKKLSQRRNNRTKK

[2] = test system: T2, BpmI D74A (clone #4) D74A,E1007G (Bacillus pumilus); assay: activity in cells; settings: methylation proficient (partial plasmid resistance to BpmI); endonuclease activity abolished; protein in a lysate after overexpression; only the site is given
T2 sequence (limits assumed): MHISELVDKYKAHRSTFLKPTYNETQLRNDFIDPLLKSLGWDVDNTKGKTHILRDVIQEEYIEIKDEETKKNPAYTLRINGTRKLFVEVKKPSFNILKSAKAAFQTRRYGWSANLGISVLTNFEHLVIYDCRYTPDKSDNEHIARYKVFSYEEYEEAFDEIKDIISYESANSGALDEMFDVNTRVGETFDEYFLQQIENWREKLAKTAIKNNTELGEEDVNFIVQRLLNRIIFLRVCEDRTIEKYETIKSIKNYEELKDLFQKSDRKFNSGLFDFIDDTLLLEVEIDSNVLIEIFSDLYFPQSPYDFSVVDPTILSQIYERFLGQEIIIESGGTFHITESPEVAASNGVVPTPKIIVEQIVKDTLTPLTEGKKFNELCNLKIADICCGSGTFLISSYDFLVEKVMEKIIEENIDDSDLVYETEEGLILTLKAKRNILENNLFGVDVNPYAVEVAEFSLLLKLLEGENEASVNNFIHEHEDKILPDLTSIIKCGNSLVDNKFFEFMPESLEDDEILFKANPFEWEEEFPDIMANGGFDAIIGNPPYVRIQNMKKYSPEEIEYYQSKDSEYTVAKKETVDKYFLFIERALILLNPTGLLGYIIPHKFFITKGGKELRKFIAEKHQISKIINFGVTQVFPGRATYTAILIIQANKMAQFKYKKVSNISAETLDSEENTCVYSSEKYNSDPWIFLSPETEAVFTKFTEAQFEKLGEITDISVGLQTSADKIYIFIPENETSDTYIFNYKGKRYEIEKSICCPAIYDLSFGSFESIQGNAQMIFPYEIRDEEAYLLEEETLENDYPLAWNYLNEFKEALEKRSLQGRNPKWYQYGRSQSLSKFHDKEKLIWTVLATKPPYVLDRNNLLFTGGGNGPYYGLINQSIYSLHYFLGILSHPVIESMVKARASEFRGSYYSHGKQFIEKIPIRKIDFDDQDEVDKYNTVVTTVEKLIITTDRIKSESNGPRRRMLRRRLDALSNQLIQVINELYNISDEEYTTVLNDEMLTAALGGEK

[3] = test system: T3, BpmI E88A (Bacillus pumilus); assay: activity in cells; settings: methylase proficient; endonuclease deficient; protein in a lysate after overexpression; only the site is given
T3 sequence (limits assumed): T2 sequence (limits assumed) with A74D, E88A, G1007E

[4] = test system: T4, BpmI endonuclease-methylase (BpmIRM) (Bacillus pumilus); assay: enzyme reaction in vitro; settings: lambda DNA substrate; 24,000 units per mg specific activity; purified recombinant protein
T4 sequence (limits assumed): T2 sequence (limits assumed) with A74D, G1007E

[5] = test system: T5, BpmI-delta1 (methylase and specificity domains deleted) (Bacillus pumilus); assay: enzyme reaction in vitro; settings: lambda DNA; only non-specific nuclease seen; protein in a lysate after overexpression
T5 sequence: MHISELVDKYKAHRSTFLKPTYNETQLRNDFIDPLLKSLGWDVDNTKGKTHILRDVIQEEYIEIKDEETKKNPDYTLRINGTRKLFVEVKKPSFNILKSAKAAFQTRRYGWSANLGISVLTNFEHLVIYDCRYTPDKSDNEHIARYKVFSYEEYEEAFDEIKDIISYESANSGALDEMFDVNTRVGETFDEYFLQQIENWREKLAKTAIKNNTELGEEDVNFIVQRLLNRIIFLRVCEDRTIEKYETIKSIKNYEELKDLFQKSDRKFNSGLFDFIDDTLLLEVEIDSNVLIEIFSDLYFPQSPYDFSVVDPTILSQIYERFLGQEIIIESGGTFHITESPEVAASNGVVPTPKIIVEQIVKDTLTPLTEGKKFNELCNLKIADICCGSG

[6] = test system: T6, BpmI-delta2 (EcoRI fragment deletion, C-terminal 507 aa deleted) (Bacillus pumilus); assay: enzyme reaction in vitro; settings: no BpmI endonuclease activity in induced extract; protein in a lysate after overexpression
T6 sequence: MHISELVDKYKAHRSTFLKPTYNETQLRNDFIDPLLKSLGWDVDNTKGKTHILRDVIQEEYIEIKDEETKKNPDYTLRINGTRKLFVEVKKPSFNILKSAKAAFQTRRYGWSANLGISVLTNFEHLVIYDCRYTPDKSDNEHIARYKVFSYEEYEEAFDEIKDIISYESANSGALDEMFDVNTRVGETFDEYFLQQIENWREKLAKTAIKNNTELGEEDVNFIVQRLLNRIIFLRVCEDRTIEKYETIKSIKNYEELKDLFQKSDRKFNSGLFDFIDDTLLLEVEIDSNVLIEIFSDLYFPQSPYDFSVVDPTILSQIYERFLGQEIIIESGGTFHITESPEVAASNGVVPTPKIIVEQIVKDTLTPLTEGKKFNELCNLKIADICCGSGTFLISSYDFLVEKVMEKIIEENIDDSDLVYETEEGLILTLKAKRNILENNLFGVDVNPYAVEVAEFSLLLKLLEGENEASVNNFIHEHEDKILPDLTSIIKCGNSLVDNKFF

[7] = test system: T7, BpmI-delta3 (TRD deletion, HindIII fragment, C-terminal 193 aa deleted) (Bacillus pumilus); assay: enzyme reaction in vitro; settings: no BpmI activity; non-specific nuclease activity displayed; protein in a lysate after overexpression
T7 sequence: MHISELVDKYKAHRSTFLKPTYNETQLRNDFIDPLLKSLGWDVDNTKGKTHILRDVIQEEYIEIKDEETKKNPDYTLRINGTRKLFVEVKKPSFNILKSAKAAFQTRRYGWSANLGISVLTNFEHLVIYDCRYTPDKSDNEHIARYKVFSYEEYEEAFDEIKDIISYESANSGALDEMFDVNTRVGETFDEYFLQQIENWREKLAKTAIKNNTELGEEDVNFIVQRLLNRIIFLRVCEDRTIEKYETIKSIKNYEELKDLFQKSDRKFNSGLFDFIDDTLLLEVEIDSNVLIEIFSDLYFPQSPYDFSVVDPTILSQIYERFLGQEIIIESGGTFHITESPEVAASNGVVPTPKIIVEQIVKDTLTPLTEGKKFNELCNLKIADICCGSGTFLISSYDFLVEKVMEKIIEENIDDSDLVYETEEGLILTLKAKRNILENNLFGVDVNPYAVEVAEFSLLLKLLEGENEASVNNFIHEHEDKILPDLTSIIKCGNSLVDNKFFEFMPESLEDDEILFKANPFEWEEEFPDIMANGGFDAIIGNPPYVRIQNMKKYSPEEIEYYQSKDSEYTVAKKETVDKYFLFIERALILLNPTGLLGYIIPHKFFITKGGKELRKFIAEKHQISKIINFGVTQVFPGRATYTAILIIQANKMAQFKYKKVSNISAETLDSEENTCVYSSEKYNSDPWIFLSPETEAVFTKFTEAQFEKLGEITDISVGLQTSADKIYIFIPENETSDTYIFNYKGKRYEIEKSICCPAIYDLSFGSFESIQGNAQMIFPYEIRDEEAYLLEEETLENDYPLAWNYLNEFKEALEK

| Sequence | activity on this sequence ([1]; modifies XhoI site, proposed recognition CTNNAG) | activity on this sequence [2] | activity on this sequence [3] | activity on this sequence ([1]; N6-adenine methylation in E. coli gives full resistance of plasmid to BpmI) | activity on this sequence [4] | activity on this sequence [5] | activity on this sequence [6] | activity on this sequence [7] |
| --- | --- | --- | --- | --- | --- | --- | --- | --- |
| CTCGAG (double strand) [XhoI site] | active | – | – | – | – | – | – | – |
| CTGGAG (double strand) [BpmI recognition site] | – | active | active | active | active | not active | not active | not active |
